Test results as given in the supplement of paper PMC7024190.
Structures can show the parent of a compound that is named as a salt. Some of the results follow. This data set is noisy: repeats of one test often differ as much as different tests do.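 Human embryonic kidney cells were transiently transfected with a plasmid bearing a Renilla luciferase gene under the HSV-TK promoter. This first-round screen tests roughly ten thousand compounds for ones that increase reporter output.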

system: HEK 293FT; experiment: log relative Renilla luciferase luminescence (reporter expression vs reference, reference not stated) (log (base not stated)); higher = higher recombinant reporter expression; details: 10 µM; time after transfection 48 h

How did the log turn out when COc1ccc(/C=C/C(=O)Nc2ccccc2C(=O)O)cc1OC [Tranilast] was run?
Its log is 0.00954.

For Nc1nc(F)nc2c1ncn2[C@@H]1O[C@H](CO)[C@@H](O)[C@@H]1O [Fludarabine], which log is on record?
The log was -0.00721.

Which log does the source give for CNC(=O)[C@H]1O[C@@H](n2cnc3c(NCc4cccc(I)c4)nc(Cl)nc32)[C@H](O)[C@@H]1O here?
Its log is 0.0915.

With CCCCCCNC(=O)Nc1ccc(S(=O)(=O)Nc2ccc(CCNC[C@H](O)COc3ccc(O)cc3)cc2)cc1 as the compound, how does the log read?
The log was 0.033.

With C[C@@]1(O)[C@H](O)[C@@H](CO)O[C@H]1n1cnc2c(NC3CCCC3)nc(Cl)nc21 as the compound, how does the log read?
Its log is -0.0171.

O=C(O)c1c(Sc2ccccc2)c2cc(Cl)ccc2n1Cc1ccc(Cl)cc1 was tested. Which log did it give?
Its log is 0.034.

With Cc1nnc(-c2ccc3occ(-c4ccc([S+](C)[O-])cc4)c3c2)o1 (configuration not stated) as the compound, how does the log read?
Its log is 0.029.

COc1ccccc1N1CCN(CCN2C(=O)c3ccccc3C(C)(C)C2=O)CC1 [ARC 239 dihydrochloride] was tested. Which log did it give?
The log was -0.0346.

With COc1cccc(/C=N/N=C/c2cccc(OC)c2)c1 as the compound, how does the log read?
The log was 0.163.

How did the log turn out when CCCOc1ccccc1-c1nc2[nH]nnc2c(=O)[nH]1 [Zaprinast] was run?
Its log is 0.0032.

Which log does the source give for O=C(O)c1ccccc1Nc1cccc(OCc2ccc3ccccc3n2)c1 [SR 2640 hydrochloride] here?
The log was 0.125.

O=[N+]([O-])c1cc2nc(O)c(O)nc2cc1[N+](=O)[O-] was tested. Which log did it give?
The log was -0.0277.

Which log does the source give for CC(=O)O[C@@H]1C[C@H]2C(C)(C)C(=O)C=C[C@]2(C)[C@H]2CC[C@@]3(C)[C@H](c4ccoc4)OC(=O)[C@H]4O[C@]43[C@@]21C [Gedunin] here?
The log was -1.52.

How did the log turn out when CN1CCC(=C2c3ccccc3CC(=O)c3sccc32)CC1 [Ketotifen fumarate] was run?
Its log is 0.0701.

Which log does the source give for CCC(CC)(CC(=O)Nc1cccc(/C=C/c2nc(C3CCC3)cs2)c1)C(=O)O [Cinalukast] here?
The log was -0.165.

O=C(O)C=C1CCCc2ccccc2C1O (configuration not stated) was tested. Which log did it give?
The log was 0.00213.

With Cc1ccccc1C(=O)c1ccc(Nc2ccc(Br)cc2N)cc1Cl as the compound, how does the log read?
The log was -0.0596.

With COc1cc2c(Nc3ccc(NC(=O)c4ccccc4)cc3)ncnc2cc1OCCCN1CCOCC1 as the compound, how does the log read?
Its log is -1.64.

CC[C@@H]1C(=O)OC[C@@H]1Cc1cncn1C [Pilocarpine hydrochloride] was tested. Which log did it give?
The log was 0.00106.

For Cc1ccccc1N1CCN(S(=O)(=O)C[C@]23CC[C@H](C[C@@H]2NC(=O)[C@@H](N)CCS(C)(=O)=O)C3(C)C)CC1 [L-368,899 hydrochloride], which log is on record?
Its log is 0.0222.

Cn1cccc1/C=C1\C(=O)NC(=O)c2ccccc21 was tested. Which log did it give?
The log was -0.0776.

For COc1c(C)c2c(c(O)c1C/C=C(\C)CCC(=O)O)C(=O)OC2 [Mycophenolic acid], which log is on record?
Its log is -0.0818.

C/C(=N\NC(=O)C1C(=O)NCC1c1ccccc1)c1cccc(Br)c1 (configuration not stated) was tested. Which log did it give?
The log was -0.84.

For NS(=O)(=O)C#Cc1ccccc1 [Pifithrin->m], which log is on record?
The log was 0.0175.

For CC(C)NCC(O)c1ccc2ccccc2c1 (configuration not stated) [Pronethalol hydrochloride], which log is on record?
Its log is -0.0416.

How did the log turn out when CCOC(=O)c1ncc2[nH]c3cccc(OC(C)C)c3c2c1C was run?
Its log is -0.139.

With CC#C[C@]1(O)CC[C@H]2[C@@H]3CCC4=CC(=O)CCC4=C3[C@@H](c3ccc(N(C)C)cc3)C[C@@]21C [Mifepristone] as the compound, how does the log read?
The log was 0.0238.

How did the log turn out when O=C(O)Cc1nn(Cc2ccc(Br)cc2F)c(=O)c2ccccc12 [Statil] was run?
Its log is 0.0419.

With CC(C)c1ccccc1S(=O)(=O)c1cc(N)c2ncccc2c1[N+](=O)[O-] as the compound, how does the log read?
Its log is 0.2.

Which log does the source give for CCCCc1nn(-c2ccccc2C(F)(F)F)c(=O)n1Cc1ccc(-c2ccccc2S(=O)(=O)NC(=O)c2sccc2C)cc1 here?
Its log is -0.19.

CSc1ccc2c(c1)C(N1CCN(C)CC1)Cc1ccccc1S2 (configuration not stated) [Methiothepin maleate] was tested. Which log did it give?
Its log is -0.0254.

With N[C@H](C(=O)O)[C@H](OCc1ccccc1)C(=O)O (racemic) as the compound, how does the log read?
The log was 0.143.

Which log does the source give for CC[C@H](C)C(=O)O[C@H]1C[C@H](O)C=C2C=C[C@H](C)[C@H](CC[C@@H](O)C[C@@H](O)CC(=O)O)[C@H]21 [Pravastatin sodium salt] here?
Its log is -0.247.

Which log does the source give for COCCOC(=O)C1=C(C)NC(C)=C(C(=O)OC/C=C/c2ccccc2)C1c1cccc([N+](=O)[O-])c1 (configuration not stated) [Cilnidipine] here?
The log was -0.096.

With CCCCNC(=O)[C@@H]1Cc2ccccc2N1C(=O)[C@@H](N)CC [Butabindide oxalate] as the compound, how does the log read?
The log was 0.026.

With CN[C@H]1CC[C@@H](c2ccc(Cl)c(Cl)c2)c2ccccc21 [Sertraline hydrochloride] as the compound, how does the log read?
The log was -0.111.

Which log does the source give for CCCCC#Cc1nc(NC)c2ncn([C@@H]3O[C@H](CO)[C@@H](O)[C@H]3O)c2n1 here?
Its log is -0.0137.
